From PMC9719212
No constants are given. Whether binding was seen depends on the method and setting. Binding seen in cells or lysates may run through a third protein. Some binding calls cover weakened binding; strength is not graded here.

Sequences of proteins named here, by UniProt entry; tags and fusion partners are left off. Residues count along the entry.
UniProt P16070, residues 21-742: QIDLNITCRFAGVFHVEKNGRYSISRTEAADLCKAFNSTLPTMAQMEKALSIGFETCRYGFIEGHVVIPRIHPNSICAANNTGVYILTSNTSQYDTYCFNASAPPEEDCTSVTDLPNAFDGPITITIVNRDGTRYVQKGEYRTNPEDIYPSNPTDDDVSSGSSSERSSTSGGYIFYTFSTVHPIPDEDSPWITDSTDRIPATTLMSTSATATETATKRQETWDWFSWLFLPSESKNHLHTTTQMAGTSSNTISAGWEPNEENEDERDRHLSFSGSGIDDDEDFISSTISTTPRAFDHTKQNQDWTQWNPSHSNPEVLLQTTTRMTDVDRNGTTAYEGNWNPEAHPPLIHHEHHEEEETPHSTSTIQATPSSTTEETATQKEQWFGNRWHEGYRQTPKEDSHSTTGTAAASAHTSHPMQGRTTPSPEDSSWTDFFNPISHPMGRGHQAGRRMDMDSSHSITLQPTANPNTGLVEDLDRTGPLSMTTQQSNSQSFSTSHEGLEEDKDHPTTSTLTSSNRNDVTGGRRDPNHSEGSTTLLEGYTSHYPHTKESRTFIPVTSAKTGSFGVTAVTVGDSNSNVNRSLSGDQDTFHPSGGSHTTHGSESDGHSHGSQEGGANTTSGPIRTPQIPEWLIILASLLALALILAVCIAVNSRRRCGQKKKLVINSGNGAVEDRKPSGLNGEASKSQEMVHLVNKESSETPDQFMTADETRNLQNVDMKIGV
UniProt P21802, residues 22-821: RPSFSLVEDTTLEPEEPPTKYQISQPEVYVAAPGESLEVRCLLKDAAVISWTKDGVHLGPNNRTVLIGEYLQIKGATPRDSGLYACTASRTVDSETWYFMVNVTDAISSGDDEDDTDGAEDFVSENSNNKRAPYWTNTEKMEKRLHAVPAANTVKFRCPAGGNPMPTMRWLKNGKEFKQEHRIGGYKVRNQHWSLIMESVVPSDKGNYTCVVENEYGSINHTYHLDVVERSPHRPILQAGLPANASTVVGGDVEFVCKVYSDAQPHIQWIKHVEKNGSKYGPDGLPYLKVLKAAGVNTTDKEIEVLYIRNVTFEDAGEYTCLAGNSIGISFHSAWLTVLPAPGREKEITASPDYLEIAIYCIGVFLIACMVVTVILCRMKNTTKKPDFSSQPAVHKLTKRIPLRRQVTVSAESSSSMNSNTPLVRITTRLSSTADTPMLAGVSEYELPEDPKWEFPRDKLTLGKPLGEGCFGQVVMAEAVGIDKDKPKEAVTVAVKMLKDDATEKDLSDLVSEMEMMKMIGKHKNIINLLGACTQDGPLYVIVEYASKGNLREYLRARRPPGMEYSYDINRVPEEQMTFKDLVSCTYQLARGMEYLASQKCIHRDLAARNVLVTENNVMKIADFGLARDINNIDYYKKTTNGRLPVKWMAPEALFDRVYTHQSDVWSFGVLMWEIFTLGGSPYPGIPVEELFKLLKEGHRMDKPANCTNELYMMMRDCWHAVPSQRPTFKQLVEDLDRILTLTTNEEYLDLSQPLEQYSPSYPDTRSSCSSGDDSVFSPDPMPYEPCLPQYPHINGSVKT
UniProt P21926: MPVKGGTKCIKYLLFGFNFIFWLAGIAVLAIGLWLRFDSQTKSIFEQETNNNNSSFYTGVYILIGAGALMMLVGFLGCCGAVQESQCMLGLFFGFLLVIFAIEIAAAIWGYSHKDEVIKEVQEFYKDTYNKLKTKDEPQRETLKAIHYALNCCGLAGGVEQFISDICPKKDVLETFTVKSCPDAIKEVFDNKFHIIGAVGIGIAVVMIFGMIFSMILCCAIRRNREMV

Legend:
[1] = target: CD44 (human (endogenous in HUVECs)) (UniProt P16070); assay: co-IP; endogenous proteins in HUVEC lysate (IP lysis buffer with protease inhibitors); 2 ug CD44 rabbit antibody, FGFR2 rabbit antibody or normal rabbit IgG, Protein G Sepharose, 4 °C; Western blot
[2] = target: CD44 (human (endogenous in HUVECs)) (UniProt P16070); assay: proximity ligation; Duolink in situ PLA on fixed, permeabilized HUVECs on fibronectin-coated glass; CD44 rabbit antibody paired with FGFR2, LaminA/C or CD9 mouse antibody; endogenous protein levels, distances < 40 nm
[3] = target: fibroblast growth factor receptor 2 (human (endogenous in HUVECs)) (UniProt P21802); assay: co-IP; endogenous proteins in HUVEC lysate (IP lysis buffer with protease inhibitors); 2 ug CD44 rabbit antibody, FGFR2 rabbit antibody or normal rabbit IgG, Protein G Sepharose, 4 °C; Western blot

Substance | binding [1] | binding [2] | binding [3]
fibroblast growth factor receptor 2 (from UniProt P21802 22-821) | binds | binds | –
CD44 (from UniProt P16070 21-742) | – | – | binds
CD9 (from UniProt P21926 1-228) | – | binds | –
